Primary screen of a compound library

A: 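Whole-cell assay for inhibitors of Mycobacterium tuberculosis growth, labelled Cornell in the record; the read-out is not stated. The concentration is filed as 10 mM, unlikely as a test dose, so the dose is not known. Higher means stronger inhibition (inferred from two other growth screens of the library). Size under these conditions: about 53,000 compounds, about 900 of them at 50% or above in at least one test.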
B: 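Assay on Mycobacterium tuberculosis, filed only as a heat shock assay from Cornell; the read-out is not stated. The concentration is filed as 10 mM, unlikely as a test dose, so the dose is not known. Higher reads as stronger inhibition (inferred: compounds with an IC50 in retests scored well above the rest). Size under these conditions: about 69,000 compounds, about 930 of them at 50% or above in at least one test.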

Each number is a percent effect as filed. How 0% and 100% were set is not recorded. Most values in the screen are low, and negative values occur. Compounds were drawn at random from those tested, without regard to their results.

SMILES: O=C(CCn1cnnn1)N1CCCC(CO)(CCc2ccccc2)C1 (centres unmarked)
B: -176.6%

SMILES: Cc1ccc(C(=O)N2CCN(Cc3cccs3)CC2)c(=O)[nH]1
B: 1.608%

SMILES: O=C(O)C(F)(F)F.[H][C@@]12CN(Cc3csc(C)n3)CCO[C@]1([H])CN(C(=O)CC1CC1)C2
A: 11.09%
B: -42.46%

SMILES: O=C(COCCOc1ccccc1)NC1CCN(c2ncccn2)CC1
A: -21.39%
B: -11.97%

SMILES: COCCNC(=O)c1nc2c(s1)CCCN2c1ccc(C)nn1
A: -12.81%
B: -32.37%

SMILES: CCCc1nc(C(C)(C)NC(=O)C2CC(=O)N(CC)C2)no1 (centres unmarked)
B: 1.924%

SMILES: CN(Cc1cccs1)C(=O)CN(C)C1CCc2ccccc21 (centres unmarked)
B: 10.51%

SMILES: COCC1COCCC12CCN(C(=O)CC1=CCCCC1)CC2 (centres unmarked)
A: 21.89%
B: -23.41%

SMILES: Cc1nn(C)c(C)c1C1COCCN1c1ncnc2sccc12 (centres unmarked)
A: 1.991%
B: 14.15%

SMILES: Cc1c[nH]c(CN2CCCCC2CCn2cccn2)c(C)c1=O (centres unmarked)
A: 18.11%
B: 16.34%

SMILES: Cc1nc(C(=O)N2CC(C)Sc3ccccc32)cs1 (centres unmarked)
B: -10.25%

SMILES: NC(=O)CC1CCN(C(=O)NCc2ccccc2-n2cccn2)CC1
B: -22.43%

SMILES: CC(C)c1nc2c(n1C)CCN(Cc1nc(-c3ccsc3)no1)C2
A: 47.87%
B: 103.5%

SMILES: CCc1csc(C2CCCN(C(=O)c3ccco3)C2)n1 (centres unmarked)
A: -22.57%
B: -22.19%

SMILES: CSC(C)(C)CNC(=O)NC1CCN(C)CC1
A: 7.052%
B: -0.3791%

SMILES: [H][C@@]12COC[C@]1([H])[C@@H](OCc1ccccn1)CN2C(=O)c1ccnnc1
A: 12.35%
B: -4.902%

SMILES: CCc1cnc(C)nc1NCCc1nc(N)cc(O)n1
A: -43.91%
B: 15.16%

SMILES: CCc1n[nH]c(C2CN(C(=O)c3ccc(NC4CC4)nc3)CCO2)n1 (centres unmarked)
B: -3.369%

SMILES: Cc1cc2c(cc1Cl)C=CC1(CCN(CC(=O)NC3CCCC3)CC1)O2
A: 71.56%
B: 1.747%

SMILES: COc1cccn(CC(=O)N(C)CCSC)c1=O
A: -11.67%
B: -2.69%

SMILES: CC(C)(C)NC(=O)N1CCN(Cc2cccnc2)CC1
A: 9.273%
B: 6.517%

SMILES: c1ccc(CCCn2cc(-c3nc(CN4CCOCC4)no3)nn2)cc1
B: -0.4874%

SMILES: CCS(=O)(=O)NCCN1CCN(C(C#N)c2ccccc2)CC1 (centres unmarked)
A: 21.7%
B: -3.624%

SMILES: Cc1nnc(NC(=O)C2CSCN2C(=O)C2CCCC2)s1 (centres unmarked)
A: -26.31%
B: 4.602%

SMILES: O=C(CNC(=O)N(Cc1ccoc1)C1CCCCC1)N1CCCC1
A: 18.64%
B: 5.579%

SMILES: O=S1(=O)c2cnccc2OC(COc2ccccc2)CN1CC1CC1 (centres unmarked)
A: 30.67%
B: -7.154%

SMILES: CC(C)C(=O)N1CCN(Cc2csc(-c3ccccn3)n2)CC1
A: -16.65%
B: -29.89%

SMILES: CN(Cc1cccc(O)c1)Cc1cnn(C)c1
A: 3.064%
B: -4.217%

SMILES: COCC(=O)N1CCC2(CC1)CN(S(C)(=O)=O)Cc1ccccc1O2
A: -7.857%
B: 12.75%

SMILES: O=C1CC(Nc2ccc3nccnc3n2)CN1c1ccccc1 (centres unmarked)
B: -4.555%

SMILES: Cc1cc(C)c(CNC(=O)NCC(O)c2ccccc2F)c(=O)[nH]1 (centres unmarked)
A: -14.22%
B: -23.91%

SMILES: CC(=O)NCCC(Cc1ccccc1)c1ccco1 (centres unmarked)
A: 15.37%
B: -5.506%

SMILES: O=C(c1ccc2c(c1)OCO2)N1CCN(c2cnccn2)CC1
A: -29.87%
B: 30.94%

SMILES: CC(=O)Nc1nc(-c2ccc(F)cc2)c[nH]1
A: -26.75%
B: -26.36%

SMILES: Cc1nc(CN2CCC3(CCCN(C(=O)c4cnccn4)C3)C2)cs1.O=C(O)C(F)(F)F (centres unmarked)
A: 5.147%
B: -16.5%

SMILES: COc1cccc(N2CCN(CC(O)c3ccc(C)cc3)CC2)c1 (centres unmarked)
A: 0.482%
B: -13.97%

SMILES: O=c1oc(-c2ccc(F)cc2)nn1CC1CCCCO1 (centres unmarked)
B: 36.65%

SMILES: CC1CCN(S(=O)(=O)N2Cc3ccccc3C[C@H]2C(N)=O)CC1
A: 0.8196%
B: 18.99%

3 of the entries, repeated:

SMILES,A,B
CC(=O)Nc1nc(-c2ccc(F)cc2)c[nH]1,-26.75%,-26.36%
O=S1(=O)c2cnccc2OC(COc2ccccc2)CN1CC1CC1 (centres unmarked),30.67%,-7.154%
O=C(c1ccc2c(c1)OCO2)N1CCN(c2cnccn2)CC1,-29.87%,30.94%

Source: ChEMBL document CHEMBL3988442, “University of Dundee, Small-Polar-MMV Screening Library” (2021).